Laboratory results: PubChem BioAssay AID493246 (Drosophila RNAi Screening Center, 2011)

- Aim: 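Identify essential fly genes by loss of cell viability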 (primary screen)
- Cell system: Drosophila Kc and S2R+ cells
- Reagent: long dsRNA against Drosophila genes
- Measurement: 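Cell number per well after knock-down, printed as raw plate values; calls were based on per-plate z-scores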
- Scale: Kc cell number and S2R+ cell number: higher = more cells remaining
- Call rule: 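Counted as a hit if cell number falls by a z-score of at least 3 within its plate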
The screen tested about 21,000 reagents; this is an unselected part of those that have a named target and a result. Of all reagents, 429 (2%) are marked active. 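Values are raw and not normalised between plates; calls rest on per-plate z-scores that were not deposited.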 A plus sign joins genes that one reagent is predicted to hit. Not stated in the record: the amount of reagent, the time to read-out.

The first 4 entries, ahead of the listing:
gene | amplicon | Kc cell number, rep 1 | Kc cell number, rep 2 | S2R+ cell number, rep 1 | S2R+ cell number, rep 2 | Call
rn (rotund) | DRSC12500 | 1.44e6 | 1.25e6 | 6.10e5 | 7.00e5 | active
rn (rotund) | DRSC12543 | 1.55e6 | 1.70e6 | 1.41e6 | 1.55e6 | inactive
rn (rotund) | DRSC12544 | 1.58e6 | 1.65e6 | 1.26e6 | 1.40e6 | inactive
rn (rotund) | DRSC12546 | 1.60e6 | 1.57e6 | 1.33e6 | 1.50e6 | inactive

Main list, from the first entry:
gene | amplicon | Kc cell number, rep 1 | Kc cell number, rep 2 | S2R+ cell number, rep 1 | S2R+ cell number, rep 2 | Call
rn (rotund) | DRSC12500 | 1.44e6 | 1.25e6 | 6.10e5 | 7.00e5 | active
rn (rotund) | DRSC12543 | 1.55e6 | 1.70e6 | 1.41e6 | 1.55e6 | inactive
rn (rotund) | DRSC12544 | 1.58e6 | 1.65e6 | 1.26e6 | 1.40e6 | inactive
rn (rotund) | DRSC12546 | 1.60e6 | 1.57e6 | 1.33e6 | 1.50e6 | inactive
Sirup (Starvation-upregulated protein) | DRSC03031 | 1.54e6 | 1.55e6 | 1.20e6 | 1.38e6 | inactive
Tnpo-SR (Transportin-Serine/Arginine rich) | DRSC00546 | 1.30e6 | 1.40e6 | 5.52e5 | 6.51e5 | inactive
NetB (Netrin-B) | DRSC20262 | 5.41e5 | – | 8.40e5 | – | inactive
Vajk2 | DRSC02540 | 1.74e6 | 1.85e6 | 1.22e6 | 1.34e6 | inactive
CG5250 | DRSC15752 | 1.41e6 | 1.41e6 | 1.13e6 | 1.26e6 | inactive
Ent2 (Equilibrative nucleoside transporter 2) | DRSC02124 | 1.27e6 | 1.37e6 | 6.34e5 | 7.10e5 | inactive
CG17050 (retired record) | DRSC06651 | 1.58e6 | 1.48e6 | 1.22e6 | 1.28e6 | inactive
CG14218 | DRSC19575 | 1.46e6 | 1.64e6 | 1.04e6 | 1.04e6 | inactive
Ras85D (Ras oncogene at 85D) | DRSC16814 | 1.42e6 | 1.32e6 | 1.06e6 | 1.18e6 | inactive
GABPI (beta4GalNAcTB pilot) | DRSC00494 | 1.38e6 | 1.42e6 | 5.70e5 | 7.10e5 | inactive
bbg (big bang) | DRSC11077 | 1.48e6 | 1.63e6 | 1.31e6 | 1.44e6 | inactive
bbg (big bang) | DRSC11079 | 1.35e6 | 1.41e6 | 1.27e6 | 1.44e6 | inactive
Cyp6t1 (Cytochrome P450 6t1) | DRSC20564 | 1.50e6 | 1.53e6 | 1.06e6 | 1.16e6 | inactive
CG31465 | DRSC16090 | 1.52e6 | 1.52e6 | 1.21e6 | 1.22e6 | inactive
CG8478 | DRSC16427 | 1.59e6 | 1.75e6 | 1.26e6 | 1.39e6 | inactive
CG6195 | DRSC15989 | 1.25e6 | 1.21e6 | 1.07e6 | 1.11e6 | inactive
Mps1 (Monopolar spindle 1) | DRSC16273 | 1.72e6 | 1.69e6 | 1.30e6 | 1.36e6 | inactive
Tango4 (Transport and Golgi organization 4) | DRSC19786 | 5.28e5 | – | 7.64e5 | – | inactive
CG17168 | DRSC20904 | 1.44e6 | 1.51e6 | 1.02e6 | 1.16e6 | inactive
eIF3h (eukaryotic translation initiation factor 3 subunit h) | DRSC01995 | 1.18e6 | 1.40e6 | 3.41e5 | 3.11e5 | inactive
CG11663 | DRSC17793 | 1.48e6 | 1.47e6 | 8.35e5 | 8.99e5 | inactive
CG31082 (retired record) | DRSC13775 | 1.22e6 | 1.46e6 | 1.05e6 | 1.10e6 | inactive
sov (small ovary) | DRSC17930 | 5.49e5 | – | 8.54e5 | – | inactive
CG3842 | DRSC18326 | 1.63e6 | 1.43e6 | 1.03e6 | 1.08e6 | inactive
l(2)k09022 (lethal (2) k09022) | DRSC02108 | 1.23e6 | 1.41e6 | 5.73e5 | 7.51e5 | inactive
CG17597 | DRSC02630 | 1.41e6 | 1.45e6 | 1.25e6 | 1.26e6 | inactive
CG10907 | DRSC09804 | 1.49e6 | 1.43e6 | 1.32e6 | 1.52e6 | inactive
CG8958 | DRSC20134 | 1.48e6 | 1.50e6 | 1.08e6 | 1.24e6 | inactive
CG14621 | DRSC20635 | 1.44e6 | 1.47e6 | 1.00e6 | 1.13e6 | inactive
Bx42 | DRSC17743 | 3.59e5 | – | 4.39e5 | – | active
TAF1C-like | DRSC04073 | 1.44e6 | 1.51e6 | 1.26e6 | 1.32e6 | inactive
Ask1 (Apoptotic signal-regulating kinase 1) | DRSC16789 | 1.22e6 | 1.39e6 | 1.10e6 | 1.21e6 | inactive
cag | DRSC07587 | 1.74e6 | 1.77e6 | 1.31e6 | 1.48e6 | inactive
sob | DRSC00838 | 1.45e6 | 1.42e6 | 1.00e6 | 1.07e6 | inactive
Or67b (Odorant receptor 67b) | DRSC11241 | 1.37e6 | 1.24e6 | 1.22e6 | 1.34e6 | inactive
Bacc (Bacchus) | DRSC00735 | 1.62e6 | 1.64e6 | 1.10e6 | 1.32e6 | inactive
shi (shibire) | DRSC20373 | 6.16e5 | – | 9.31e5 | – | inactive
CheA7a (Chemosensory protein A 7a) | DRSC17965 | 1.55e6 | 1.59e6 | 1.11e6 | 1.27e6 | inactive
CG3285 | DRSC00589 | 1.35e6 | 1.53e6 | 1.08e6 | 1.15e6 | inactive
CG15602 | DRSC19671 | 1.53e6 | 1.55e6 | 1.07e6 | 1.13e6 | inactive
CG14757 | DRSC06492 | 1.54e6 | 1.59e6 | 1.19e6 | 1.31e6 | inactive
CG42717 | DRSC09411 | 1.36e6 | 1.45e6 | 1.07e6 | 1.25e6 | inactive
CG18538 | DRSC06765 | 1.54e6 | 1.56e6 | 1.11e6 | 1.18e6 | inactive
CG34195 | DRSC06909 | 1.58e6 | 1.62e6 | 1.26e6 | 1.57e6 | inactive
CG30423 | DRSC04013 | 1.41e6 | 1.50e6 | 9.74e5 | 1.05e6 | inactive
tna (tonalli) | DRSC09053 | 1.40e6 | 1.54e6 | 1.13e6 | 1.29e6 | inactive
tna (tonalli) | DRSC10937 | 1.64e6 | 1.66e6 | 1.21e6 | 1.38e6 | inactive
Rh2 (Rhodopsin 2) | DRSC16821 | 1.39e6 | 1.48e6 | 1.11e6 | 1.14e6 | inactive
bif (bifocal) | DRSC18901 | 1.35e6 | 1.59e6 | 9.68e5 | 1.05e6 | inactive
bif (bifocal) | DRSC20313 | 6.04e5 | – | 8.35e5 | – | inactive
kirre (kin of irre) | DRSC18785 | 1.45e6 | 1.44e6 | 1.08e6 | 1.16e6 | inactive
CG6034 | DRSC10572 | 1.41e6 | 1.60e6 | 1.32e6 | 1.39e6 | inactive
CG14573 | DRSC11734 | 1.40e6 | 1.71e6 | 1.27e6 | 1.32e6 | inactive
CG5273 | DRSC18612 | 1.51e6 | 1.47e6 | 1.02e6 | 1.10e6 | inactive
CG42820 + CG42819 | DRSC02264 | 1.65e6 | 1.74e6 | 1.36e6 | 1.50e6 | inactive
CG42820 + CG42819 | DRSC02265 | 1.81e6 | 1.87e6 | 1.11e6 | 1.30e6 | inactive
